The record followed here is PubChem BioAssay AID602441 (National Center for Advancing Translational Sciences (NCATS), 2012).

Molecules are shown by their SMILES. Among all 1,300 compounds or so, fewer than 10 were called active. Another 9% or so got no clear call; they are omitted. Calls follow the shape of the dose curve; as a rule, active = well fitted curve in the direction sought with a large enough effect; inconclusive = small, poorly fitted or top-dose-only effect, or another doubt; inactive = no such curve, though single readings can be large or run the other way. Some of the results follow.

A short description of the test: qHTS for antagonists of the Thyroid Stimulation Hormone Receptor: Hit Validation in Parental Cell Line. Also: 0% is about no effect. The settings on record: parental HEK293 cells lacking TSHR, counter-screen; series mostly up to 56.9 µM; activity change, negative = inhibition: at the top concentration. Summed up: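 Counterscreen in untransfected parental HEK-EM 293 cells. Lysate cAMP displaces cAMP-d2 from cryptate-tagged anti-cAMP antibody, and homogeneous TR-FRET is read at 665 nm with 337 nm excitation after stimulation.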
In general terms: Quantitative high-throughput screening tests each substance at several concentrations.
For the compound `CN(C)c1ccc(NC(=S)c2ccc3ccccc3n2)cc1`, the “activity change, negative = inhibition” value was inactive: 1.66%. In the case of `CCCCOCCCNc1ncnc2c1[nH]c1ccccc12` it was inactive: -8.16%. With `Clc1cc(Cl)c(OCc2nc(-c3ccccn3)no2)cc1Cl`, the “activity change, negative = inhibition” value was inactive: -4.07%.

Take `O=C(NC(Nc1nc2ccc([N+](=O)[O-])cc2s1)(C(F)(F)F)C(F)(F)F)c1cccnc1`: the “activity change, negative = inhibition” value was inactive: -6.02%.

Regarding `C=CCNC(=O)c1ccc(NC(=O)C2=CSCCO2)cc1`, the “activity change, negative = inhibition” value was inactive: 0.848%. In the case of `COC(=O)c1ccc(COc2cc(O)c3c(c2)OC(C)(C)CC3=O)cc1` it was inactive: -0.0715%; in that of `O=C(CSc1nnc(NC(=O)c2cccc(Br)c2)s1)NCC1CCCO1` (configuration not stated), inactive: -5.71%; in that of `O=C(OCCc1cc2ccccc2c(=O)o1)c1ccccc1C(F)(F)F`, inactive: 1.43%. In the case of `O=C(Nc1nc(-c2cccs2)cs1)c1cccc(S(=O)(=O)N2CCCCCC2)c1`, the “activity change, negative = inhibition” value is inactive: -6.41%. Regarding `CN(C)c1nc(=S)nc(NCc2ccccc2)[nH]1`, the “activity change, negative = inhibition” value is inactive: 5.9%. Then `COCC(=O)N1CCC(n2nccc2NC(=O)c2ccccc2OC)CC1`, with inactive: 2.84%. Then `Nc1ncc(Br)cc1S(=O)(=O)Nc1cc(C(F)(F)F)cc(C(F)(F)F)c1`, with inactive: -4.31%; and `CCOc1ccc(N(CC(=O)NCc2ccc(F)cc2)C(=O)CCC(=O)Nc2nccs2)cc1`, with inactive: 2.09%.

In the case of `COc1ccc(CCNc2ncnc3sc(C)cc23)cc1OC`, the “activity change, negative = inhibition” value was inactive: -0.71%. With `Cc1[nH]n(-c2ccccc2)c(=O)c1N=Nc1c(O)cc(S(=O)(=O)N(C)C)c2ccccc12`, the “activity change, negative = inhibition” value is inactive: -9.58%. In the case of `c1ccc2c(Cn3nnc4ccccc43)cccc2c1` it was inactive: 3.24%; in that of `COC(=O)c1ccc(C2N=C(c3cccs3)CC(c3ccccc3O)N2)cc1` (configuration not stated), inactive: -5.29%. In the case of `CCn1c(=O)c([N+](=O)[O-])c(Cl)c2ccccc21` it was inactive: -8.99%. In the case of `CCCC(=NC(C)CC)C1=C(O)CC(c2ccccc2)CC1=O` (configuration not stated) it was inactive: -2.01%; in that of `CC(=O)Nc1nc(C)c(Oc2ccc(C)cc2)c(=O)[nH]1`, inactive: -1.89%; in that of `CC(=O)Oc1c(I)cc(I)cc1C(=O)Nc1ccc(Cl)cc1`, inactive: -2.66%. Consider `O=C(N1CCN=C1SCc1cccnc1)C12CC3CC(CC(C3)C1)C2`, for which the “activity change, negative = inhibition” value is inactive: 3.8%.

For the compound `C=C(C)C(=O)OCC(O)COc1ccc(C(C)(C)c2ccc(OCC(O)COC(=O)C(=C)C)cc2)cc1` (configuration not stated), the “activity change, negative = inhibition” value is inactive: 2.1%. In the case of `CC1CCc2nc(NC(=O)CSc3nc4ccccc4o3)sc2C1` (configuration not stated) it was inactive: -5.03%. For `COc1ccc(Br)cc1/C=N/NC(=O)CN1CCCCC1`, the “activity change, negative = inhibition” value is inactive: 1.49%. In the case of `O=C1/C(=C\c2cc([N+](=O)[O-])ccc2O)SC(=S)N1Cc1ccc(Cl)cc1` it was inactive: -0.0111%; in that of `COC(=O)c1ccc(O)c(Sc2cc(C(=O)OC)ccc2O)c1`, inactive: 5.3%; in that of `Cc1occc1-c1nnc(SCC(=O)Nc2nc(C(C)(C)C)cs2)o1`, inactive: 0.133%.

Consider `CCCCCCSc1nsc(NC(C)=O)n1`, for which the “activity change, negative = inhibition” value is inactive: 0.688%.

In the case of `CCn1nnc2cc(C(=O)NCC(c3ccccc3OC)N(C)C)ccc21` (configuration not stated), the “activity change, negative = inhibition” value is inactive: 0.997%. As to `COc1ccc(NC(=O)c2ccc3ccccc3n2)cc1S(=O)(=O)Nc1ccccc1Cl`, the “activity change, negative = inhibition” value is inactive: -0.701%. Take `COC(=O)CN1C(=O)COc2ccc(S(=O)(=O)N3CCCC3)cc21`: the “activity change, negative = inhibition” value was inactive: 6.27%. In the case of `O=C(Nc1ncc(S(=O)(=O)c2ccc([N+](=O)[O-])cc2)s1)c1ccc2ccccc2c1` it was inactive: -5.81%. Then `Cc1cc(C)c(S(=O)(=O)c2c(C)cccc2C)c(Cl)n1`, with inactive: -1.36%. In the case of `COc1ccc(-n2nnnc2SCC(=O)NC2CCCC2)cc1OC` it was inactive: 5.81%.

For the compound `Cc1cc2cc(CCNC(=O)c3ccc(S(=O)(=O)N4CCCC4)cc3)c(=O)[nH]c2cc1C`, the “activity change, negative = inhibition” value was inactive: -7.69%. Then `O=C(Nc1ncc(S(=O)(=O)c2ccc([N+](=O)[O-])cc2)s1)c1ccccc1F`, with inactive: -5.75%; and `CN(Cc1ccco1)S(=O)(=O)c1nnc(NC(=O)c2cccc(Cl)c2)s1`, with inactive: -2.31%. Then `CC(CNC(=O)c1cc(COc2ccc3ncccc3c2)on1)c1ccccc1` (configuration not stated), with inactive: -3.81%; and `COc1cnc(SCc2ccc(Cl)cc2Cl)nc1Cl`, with inactive: 2.29%.

With `CN(c1cccc(NC(=O)c2ccc(Cl)c(S(=O)(=O)Nc3ccccc3)c2)c1)S(C)(=O)=O`, the “activity change, negative = inhibition” value was inactive: -6.09%. In the case of `O=c1cc(-c2ccccc2)nc2c(-c3ccccc3)c(C(F)(F)F)[nH]n12` it was inactive: -4.22%. In the case of `Cc1ccc(C)c(N2CCN(C(=O)CCS(=O)(=O)c3ccc4c(c3)CCN4C(=O)C3CC3)CC2)c1` it was inactive: -6.03%; in that of `COc1ccccc1N1CCN(c2nc(C)nc3c2oc2ccccc23)CC1`, inactive: -2.81%. Then `O=S(=O)(Nc1ccc(-c2ccc(N3CCOCC3)nn2)cc1)c1cc(Cl)ccc1Cl`, with inactive: -7.37%.

Consider `CCc1ccc(-c2cc(C)no2)cc1S(=O)(=O)N1CCN(c2ccccn2)CC1`, for which the “activity change, negative = inhibition” value was inactive: -3.09%.

Turning to `CN(C)c1ccc(NC(=O)Oc2ccccc2)cc1`, the “activity change, negative = inhibition” value is inactive: 2.87%. In the case of `Cc1cc(-n2c(C)cc(C(=O)CSc3[nH]c(=O)cc(C(F)(F)F)c3C#N)c2C)no1` it was inactive: 4.4%. On to `O=C(Nc1ccc(Oc2ccc(Cl)cc2)c(Cl)c1)c1cc(I)cc(I)c1O`, for which the “activity change, negative = inhibition” value was inactive: 0.502%. Then `O=[N+]([O-])c1cc(Br)c(O)c(/C=N/Nc2nc3ccccc3s2)c1`, with inactive: -6.75%; and `CN1/C(=C/C(=O)c2nc(S(C)(=O)=O)ncc2Cl)C(C)(C)c2ccccc21`, with inactive: -7.95%; and `COc1cc(C(=O)NCCNC(=O)c2cnccn2)cc(OC)c1OC`, with inactive: 4.49%. With `Cc1[nH]n(C)c(=O)c1C(=O)c1c(-c2c(Cl)cccc2Cl)noc1C`, the “activity change, negative = inhibition” value was inactive: -0.751%. In the case of `COc1ccc(NS(=O)(=O)c2cccc(NC(=O)C3=NN(c4ccccc4)C(=O)CC3)c2)cc1` it was inactive: -3.01%.

With `Cc1ccc(NC(=O)Cn2ncc3c([nH]c4ccccc43)c2=O)cc1Cl`, the “activity change, negative = inhibition” value was inactive: 0.467%.

With `COc1ccc2[nH]c3c(NCCC4=CCCCC4)ncnc3c2c1`, the “activity change, negative = inhibition” value was inactive: -5.2%. In the case of `COC(=O)Cn1c(=NC(=O)CSC(C)=O)sc2ccccc21` it was inactive: 0.922%; in that of `CC(C)C[C@H](N)c1nnc(S(=O)(=O)Cc2ccc(F)cc2)o1`, inactive: -9.78%. As for `Cc1ccccc1C(=O)N1CCN(c2ccc(NC(=O)CSc3ccc(Cl)cc3)cc2)CC1`, the “activity change, negative = inhibition” value is inactive: -2.79%. Then `O=C(CCC(=O)Nc1ccccc1)N/N=C/c1ccncc1`, with inactive: 2.38%; and `Cc1cccc(OCCCCc2c(C)n[nH]c2C)c1C`, with inactive: -0.678%; and `COc1ccccc1N1C(=O)c2cccc3c(Cl)ccc(c23)C1=O`, with inactive: 1.83%. For the compound `O=C(c1cccs1)c1ccc(-c2cccs2)s1`, the “activity change, negative = inhibition” value was inactive: -0.0059%. In the case of `CC(C)S(=O)(=O)C1=NSC2=NC(=O)/C(=C\c3ccc(-c4ccccc4)o3)C(=N)N21` it was inactive: -7.22%; in that of `O=C(Nc1nnc(SCc2ccc(Cl)cc2Cl)s1)C1COc2ccccc2O1` (configuration not stated), inactive: 3.2%; in that of `O=C(CSc1ccc2nnc(CCNC(=O)c3ccccc3)n2n1)NCc1ccc(F)cc1`, inactive: 5.77%.

As for `C1=C(CCNc2ncnc3c2[nH]c2ccccc23)CCCC1`, the “activity change, negative = inhibition” value is inactive: -5.54%.
